The text below walks through data of PMC8526591.

In the assay the target is Notch intracellular domain (NICD) (human (endogenous in RBE)). Nature of the assay: co-IP; Coimmunoprecipitation using RBE cells; which protein was precipitated is not told in the text shown; methods in the Supplementary Material.

These are yes or no findings as the source states them, for the method shown. Binding seen in cells or lysates may run through a third protein. Binding calls can cover weak binding; strength is not graded here.

B1: Numb (protein, UniProt P49757 1-651)
chain: MNKLRQSFRRKKDVYVPEASRPHQWQTDEEGVRTGKCSFPVKYLGHVEVDESRGMHICEDAVKRLKAERKFFKGFFGKTGKKAVKAVLWVSADGLRVVDEKTKDLIVDQTIEKVSFCAPDRNFDRAFSYICRDGTTRRWICHCFMAVKDTGERLSHAVGCAFAACLERKQKREKECGVTATFDASRTTFTREGSFRVTTATEQAEREEIMKQMQDAKKAETDKIVVGSSVAPGNTAPSPSSPTSPTSDATTSLEMNNPHAIPRRHAPIEQLARQGSFRGFPALSQKMSPFKRQLSLRINELPSTMQRKTDFPIKNAVPEVEGEAESISSLCSQITNAFSTPEDPFSSAPMTKPVTVVAPQSPTFQANGTDSAFHVLAKPAHTALAPVAMPVRETNPWAHAPDAANKEIAATCSGTEWGQSSGAASPGLFQAGHRRTPSEADRWLEEVSKSVRAQQPQASAAPLQPVLQPPPPTAISQPASPFQGNAFLTSQPVPVGVVPALQPAFVPAQSYPVANGMPYPAPNVPVVGITPSQMVANVFGTAGHPQAAHPHQSPSLVRQQTFPHYEASSATTSPFFKPPAQHLNGSAAFNGVDDGRLASADRHTEVPTGTCPVDPFEAQWAALENKSKQRTNPSPTNPFSSDLQKTFEIEL
Take B1: the binding result is “binds”.
